This data set deals with epithelial corneal cells (SIRC). Kind of data set: In vitro protection of UV312 irradiated epithelial corneal cells (SIRC). It counts as cell-based. Particulars: UV312 80 mJ/cm^2, 10^−5 pirenoxine, 17 hours at 37° C. How it is done:
The protective effect of pirenoxine on epithelial comeal cells (SIRC) irradiated for 36″ using UV312 light (80 mJ/cm^2), according to the following procedure: (a) the comeal cells were plated in 35 mm diameter wells; (b) at 80% confluency the cells were contacted with a medium at low (0,2%) serum content to inhibit the proliferation thereof during the experiment (c) the cells were irradiated with UV light in presence and in absence of 10^−5 pirenoxine, incubated at 37° C. for 17 hours and homogenized in 10 mM f) phosphate buffer, pH 7,4; (d) the lipid-soluble fluorescent substances and the proteins contained in suitable homogenate aliquots were determined.

`O=C(O)c1cc(O)c2c3nc4ccccc4oc-3cc(=O)c2n1` [pirenoxine, 1-hydroxy-5-oxo-5H-pyrido-[3,2a]-phenoxazin-3-carboxylic acid]: the Proteins by setting is: (Cells 14/01) 0.333 mg/mL; (Cells 17/12) 0.403 mg/mL; (Cells 20/12) 0.245 mg/mL.

Source of the values: patent US6610686B1, “Use of pirenoxine for the protection of corneal tissues in photokeractomy” (Ausimont S.p.A., priority 1999, dated 2003).
